Measurements reported in PubChem BioAssay AID720505 (Drosophila RNAi Screening Center, 2013).

Screen: 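Fly regulators or components of the CRAC channel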 (primary screen)
System: Drosophila S2R+ cells
Reagents: long dsRNA against Drosophila genes
Conditions: thapsigargin (2 µM) in calcium-free buffer to empty internal stores, then 2 mM calcium added back
Detection: 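Fluo-4 signal in 384-well plates read on a FLIPR after thapsigargin (2 µM, calcium-free) store depletion and 2 mM calcium add-back; unnormalised mean endpoint per well; screen run twice, selected wells retested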
Scale: calcium signal: higher = more calcium entry after store depletion
Hit rule: 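Knock-downs counted as hits when calcium entry dropped relative to STIM1 positive and Rho1 negative controls present on each plate; roughly 1500 genes called, with reductions of differing size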
Calls: active = called as lowering calcium entry; inactive = not called
In all, the deposit lists about 20,000 reagents; shown is a random part of those with a known target gene and a result. In the full data, about 2,100 (10%) are marked active. 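Raw plate signals without normalisation; calls rest on control-based scores that were not deposited; replicate 2 separates called from uncalled poorly.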 A number with no mark means an inactive call. Not given: the amount of reagent, the time to read-out.

After knock-down of SelT [DRSC02732], the screen gave calcium signal, replicate 1 = 109; calcium signal, replicate 2 = 139.
Against ppk17 [DRSC02252], the values are calcium signal, replicate 1 = 94.6; calcium signal, replicate 2 = 135.
For CG11737 [DRSC14364], the entry reads calcium signal, replicate 1 = 143; calcium signal, replicate 2 = 186.
With knock-down of ppk14 [DRSC03238], the screen gave calcium signal, replicate 1 = 198; calcium signal, replicate 2 = 102.

Single entries from the entries so far.
CG11737 [DRSC14364], calcium signal, replicate 1 = 143
For “calcium signal, replicate 1”, SelT [DRSC02732] reads 109

The results go on:
CG18135 [DRSC10295] gave calcium signal, replicate 1 = 91; calcium signal, replicate 2 = 100.
Against Fas2 [DRSC18664], the entry reads calcium signal, replicate 1 = 121; calcium signal, replicate 2 = 145.
Ir56b [DRSC06543] showed calcium signal, replicate 1 = 186; calcium signal, replicate 2 = 159.
Silencing of CG15456 [DRSC20527] gave: calcium signal, replicate 1 = 185; calcium signal, replicate 2 = 99.2.
Silencing of CG31689 [DRSC00734] came out at: calcium signal, replicate 1 = 139; calcium signal, replicate 2 = 156.
For slif [DRSC11635] the deposit lists calcium signal, replicate 1 = 113; calcium signal, replicate 2 = 80.
CG30472 [DRSC22245] showed calcium signal, replicate 1 = 82.2; calcium signal, replicate 2 = 92.5.
mrt [DRSC15484] scored calcium signal, replicate 1 = 153; calcium signal, replicate 2 = 134.
